Results are given in words; binding and its absence hold for the method and conditions named. In cells and extracts the contact can be indirect. Some entries that bind do so weakly or less than the wild type.
Key:
[1] = biological target: T1, SIN3A, endogenous (human (endogenous in MDA-MB-231, MCF10A and MCF10CAa.1)) (UniProt Q96ST3); assay: co-IP; SIN3A immunoprecipitated with a polyclonal SIN3A antibody from nuclear fractions (NE-PER kit) of MDA-MB-231 cells and derivatives; blot probed for BRMS1 (3a1.21)
T1 sequence: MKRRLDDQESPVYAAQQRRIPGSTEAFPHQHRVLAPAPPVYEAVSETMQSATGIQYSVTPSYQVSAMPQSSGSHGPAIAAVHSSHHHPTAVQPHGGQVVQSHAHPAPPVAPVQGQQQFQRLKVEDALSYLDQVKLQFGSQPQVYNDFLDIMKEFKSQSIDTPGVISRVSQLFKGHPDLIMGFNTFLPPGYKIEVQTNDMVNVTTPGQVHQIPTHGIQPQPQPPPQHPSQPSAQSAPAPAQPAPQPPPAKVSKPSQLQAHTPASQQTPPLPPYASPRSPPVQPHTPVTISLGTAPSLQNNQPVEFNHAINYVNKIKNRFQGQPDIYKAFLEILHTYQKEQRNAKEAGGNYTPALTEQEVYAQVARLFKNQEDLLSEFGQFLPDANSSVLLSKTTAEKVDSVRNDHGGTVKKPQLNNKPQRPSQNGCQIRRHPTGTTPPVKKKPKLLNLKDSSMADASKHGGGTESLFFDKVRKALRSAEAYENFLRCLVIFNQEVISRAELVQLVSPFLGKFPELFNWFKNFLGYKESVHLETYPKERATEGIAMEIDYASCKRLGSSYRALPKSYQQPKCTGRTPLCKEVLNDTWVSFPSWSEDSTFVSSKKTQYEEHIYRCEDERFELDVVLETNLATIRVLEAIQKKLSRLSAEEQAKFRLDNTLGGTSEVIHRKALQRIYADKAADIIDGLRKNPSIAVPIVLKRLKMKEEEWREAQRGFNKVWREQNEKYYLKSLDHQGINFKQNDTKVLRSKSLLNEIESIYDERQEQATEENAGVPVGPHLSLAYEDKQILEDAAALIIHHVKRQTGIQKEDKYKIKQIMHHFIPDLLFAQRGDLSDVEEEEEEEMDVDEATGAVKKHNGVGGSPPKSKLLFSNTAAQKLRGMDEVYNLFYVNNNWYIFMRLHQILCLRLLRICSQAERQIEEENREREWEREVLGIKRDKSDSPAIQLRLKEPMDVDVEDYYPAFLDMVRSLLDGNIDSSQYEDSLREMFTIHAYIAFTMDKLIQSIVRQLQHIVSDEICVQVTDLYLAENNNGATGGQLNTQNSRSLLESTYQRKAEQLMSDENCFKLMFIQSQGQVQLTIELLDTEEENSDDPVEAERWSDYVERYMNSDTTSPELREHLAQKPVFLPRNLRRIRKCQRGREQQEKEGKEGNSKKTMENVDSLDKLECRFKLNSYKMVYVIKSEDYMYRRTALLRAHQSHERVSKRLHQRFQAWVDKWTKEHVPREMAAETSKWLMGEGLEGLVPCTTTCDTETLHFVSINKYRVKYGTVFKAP

[2] = biological target: T1, SIN3A, endogenous (human (endogenous in MDA-MB-231, MCF10A and MCF10CAa.1)); assay: co-IP; SIN3A immunoprecipitated with a polyclonal SIN3A antibody from cytoplasmic fractions (NE-PER kit) of MDA-MB-231 cells and derivatives; blot probed for BRMS1 (3a1.21)
[3] = biological target: T1, SIN3A, endogenous (human (endogenous in MDA-MB-231, MCF10A and MCF10CAa.1)); assay: proximity ligation; Duolink PLA (Olink) on fixed, permeabilised MCF10A and MCF10CAa.1 cells; SIN3A and BRMS1 primary antibodies 1:100, anti-mouse minus and anti-rabbit plus probes

B1: Breast cancer metastasis suppressor 1 (BRMS1), wild type, constitutively expressed in MDA-MB-231 (protein, UniProt Q9HCU9 1-246)
chain: MPVQPPSKDTEEMEAEGDSAAEMNGEEEESEEERSGSQTESEEESSEMDDEDYERRRSECVSEMLDLEKQFSELKEKLFRERLSQLRLRLEEVGAERAPEYTEPLGGLQRSLKIRIQVAGIYKGFCLDVIRNKYECELQGAKQHLESEKLLLYDTLQGELQERIQRLEEDRQSLDLSSEWWDDKLHARGSSRSWDSLPPSKRKKAPLVSGPYIVYMLQEIDILEDWTAIKKARAAVSPQKRKSDGP
binding [1]: binds | binding [2]: binds

B2: BRMS1, endogenous (protein, UniProt Q9HCU9 1-246)
chain: B1 chain
binding [1]: binds | binding [3]: binds

Source: article PMC3563580
